Measurements published in the supplement of paper PMC8497498.
± gives the standard deviation of the averaged measurements. The list shows a part of the results. The data scatter; read single values as rough.

Assays:
Conditions in all cases: 10 µM
[1] = test system: Plasmodium vivax liver stage (primary human hepatocyte culture); experiment: hypnozoite quantity inhibition (% inhibition); higher = more active against hypnozoites
[2] = test system: Plasmodium vivax liver stage (primary human hepatocyte culture); experiment: schizont net growth area inhibition (% inhibition); higher = more active against liver schizonts
[3] = test system: primary human hepatocytes; experiment: hepatic nuclei reduction relative to DMSO (100 - % of negative control); higher = more toxic to hepatocytes
[4] = assay mode: Prophylactic (treated before or shortly after infection), fixed day 6 post-infection
[5] = assay mode: Radical Cure (treated from day 5 post-infection for 3 days), fixed day 8 post-infection

| Compound | hypnozoite quantity inhibition [1, 4] | hypnozoite quantity inhibition [1, 5] | schizont net growth area inhibition [2, 4] | schizont net growth area inhibition [2, 5] | hepatic nuclei reduction [3, 4] [%] | hepatic nuclei reduction [3, 5] [%] |
| --- | --- | --- | --- | --- | --- | --- |
| CCc1nc2ccc(C(=O)NCc3ccc4c(c3)OCO4)cn2c1N(C)Cc1cccs1 | 21 | -20 | 11.5 | 5.9 | -1 | 0 |
| CCOC(=O)c1cc(-c2csc(Nc3c(C)cc(C)cc3C)n2)on1 | -2 | 1 | 42.6 | -29.2 | -6 | -4 |
| COc1ccc(-c2onc(C(F)(F)F)c2-c2ccc(Cl)cc2)c(O)c1 | -7 | -10 | -69.3 | -3.3 | -5 | -4 |
| O=C(Nc1ccc2c(c1)B(O)OC2)c1ccccc1C(F)(F)F | 45 | -38 | 93.8 | -112 | 25 | -9 |
| CCN(CC)CCNc1ccnc2cc(Cl)ccc12 | -36.2 | 40.5 | 32.6 | -18.4 | -4 | 4 |
| O=C(Nc1ccc(Cl)cc1C(=O)Nc1ccncc1)c1ccc(Cl)cc1Cl | 18.3 | -41.6 | 35.5 | -82.2 | -9 | -9 |
| N#Cc1nc(Cc2cccc3ccccc23)oc1N1CCN(C(c2ccccc2)c2ccccc2)CC1 | -7.2 | -12.2 | 14 | 64.8 | -12 | 6 |
| COc1ccc(N(CCc2cccc(C)n2)C(=O)C2CCCCC2)cc1 | 2 | 31 | -37.2 | 6.6 | -4 | -1 |
| O=C1c2ccccc2C2=Nc3ccccc3SC(c3cccc(F)c3)C12 (stereo not given) | -25.8 | 61.1 | 36.2 | 18.7 | 0 | -2 |
| Cc1nnc(NC(=O)c2cn(-c3ccccc3)nc2-c2ccccc2C)o1 | -68 | -25 | -20.7 | -35.2 | 5 | 8 |
| O=C(NC1CC1)c1ccc(CSCc2ccccc2Cl)o1 | 12 | -27 | 0.6 | 7.8 | -7 | 5 |
| Cc1ccnc(Nc2nc(-c3ccccn3)cs2)c1 | 29 | 43 | 106 | 79.5 | 15 | 5 |
| CCOC(=O)C1=C(c2ccccc2)N=c2sc(=Cc3cc(C)n(-c4ccc(F)cc4)c3C)c(=O)n2C1c1cccc(OC)c1OC (stereo not given) | 20.9 | 10.1 | -67 | -115 | 4 | 4 |
| Oc1ccccc1CNCC12CC3CC(CC(C3)C1)C2 | -8.7 | 45 | -71.6 | 7.9 | -16 | 8 |
| Cc1sc(NC(=O)c2ccco2)c(C(c2cccnc2)N2CCC(Cc3ccccc3)CC2)c1C (stereo not given) | 12.6 | 7.4 | 66 | -166 | -2 | -14 |
| Cc1nc2ccccc2c(O)c1CC=C(Cl)Cl | -8.7 | 22.1 | -10.3 | -28.2 | -7 | 7 |
| N#Cc1cc(NC(=O)C2c3ccccc3C(=O)N(CC(F)(F)F)C2c2cccnc2)ccc1F (stereo not given) | -52 | -12 | -31.2 | 28.3 | -6 | -3 |
| CC1CC(C)CN(C(=O)c2ccc(Cl)cc2Cl)C1 (stereo not given) | -53.3 | 22.1 | -3.2 | 22 | -9 | -6 |
| CCCCCCOC(=O)C1=C(C)NC(=O)NC1c1ccccc1F (stereo not given) | 13.9 | 10.1 | 23.1 | -23.9 | 1 | -11 |
| CCCCCC(=O)N1c2ccccc2N=C2CC(c3ccc(OC)c(OC)c3)CC(O)=C2C1c1ccc(C(F)(F)F)cc1 (stereo not given) | 27.7 | 3.8 | -47.4 | -46 | 6 | 0 |

| Compound | hypnozoite quantity inhibition [1, 4] | hypnozoite quantity inhibition [1, 5] | schizont net growth area inhibition [2, 4] | schizont net growth area inhibition [2, 5] | hepatic nuclei reduction [3, 4] [%] | hepatic nuclei reduction [3, 5] [%] |
| --- | --- | --- | --- | --- | --- | --- |
| COc1ccc(Cn2cnc3c(-c4ccco4)nc(Cl)nc32)cc1 | 11 | -36 | 11.1 | -242 | -2 | -10 |
| Cn1ccnc1CNCCS(=O)(=O)c1cccc(Nc2ccc(-c3cccc(F)c3)cn2)c1 | 45 | 16 | 26.7 | -182 | 1 | -11 |
| O=C(NCc1ccco1)C1CCN(S(=O)(=O)c2ccc(Br)cc2)CC1 | 16.5 | 33.6 | -11.6 | -14.7 | 5 | 10 |
| CCOc1ccccc1CN1CCc2nc3cc(C(C)(C)C)nn3c(O)c2C1 | 8.2 | 7.4 | 49.8 | 64.6 | 3 | -10 |
| Cc1ccc(NC(=O)c2cc(S(=O)(=O)NC(C)(C)C)ccc2C)nc1 | -53 | 4 | -86.1 | 32.8 | -11 | 2 |
| COC(=O)c1ccc(F)cc1NS(=O)(=O)c1cccc(-c2cnn(Cc3ccccc3)c2)c1 | 34 | -38 | 17.2 | -51.2 | -4 | -6 |
| CONC(=N)c1ccc(-c2ccc(-c3ccc(C(=N)NOC)cc3)o2)cc1 | 0 | 10 | -113 | -51.3 | -20 | -34 |
| O=C(c1ccccc1F)N(Cc1ccc(Cl)cc1)c1ccccn1 | 4.6 | 17.6 | 9.4 | 11.1 | 2 | -3 |
| CC(Oc1ccc(NC(=O)c2cccs2)cc1)C(=O)c1ccc(Cl)cc1 (stereo not given) | -15.4 | 35.9 | 13.1 | 30.3 | -3 | -4 |
| Cc1cc2nc(NC(=O)C(C)(C)C)nc(Cl)c2n1Cc1ccc(Cl)cc1 | 27 | -57 | 5.9 | -123 | 0 | 2 |
| N#Cc1nc(-c2ccccc2F)oc1NCCc1ccccc1 | -2 | 28 | -14.5 | 6.5 | -3 | -5 |
| COc1ccc(-c2c(C)nn3c(N)c(C#N)cnc23)cc1OC | 104 | 31.9 | 95.4 | 99 | 2 | -9 |
| Cc1cc(C)n2nc(C(=O)Nc3cc(C(F)(F)F)ccc3N3CCOCC3)nc2n1 | -38 | -20 | 41.8 | -2.6 | -5 | 8 |
| CCCC(c1nnnn1C1CCCCC1)N1CCN(C(=O)c2ccco2)CC1 (stereo not given) | 24.6 | 4.7 | -23.7 | -82.9 | 10 | 0 |
| CCN(CC)CCCC(C)Nc1cc(OC)cc2cccnc12 (stereo not given) | 58 | 26 | 36.8 | 42.2 | 0 | -7 |
| O=C(NCCc1ccn(-c2ccccc2)n1)C1CCCCC1 | 12 | 4 | -5.5 | 30.6 | -9 | -4 |
| CCC(c1ccccc1)c1nn2c(-c3cccs3)nnc2s1 (stereo not given) | 9.1 | 47.3 | 91.5 | -65.4 | -12 | 4 |
| CC(C)(C)c1ccc(O)c(CNC2CCCCC2)c1 | -21.4 | 31.3 | -32.7 | 10.6 | 0 | -9 |
| Clc1ccc2c(N3CCCC3)ccnc2c1 | 4.4 | 53.7 | 12.9 | -60.7 | -1 | -1 |
| Cc1ccnc(NC(c2cccc(OCc3ccccc3)c2)c2ccc3cccnc3c2O)c1 (stereo not given) | -7.2 | 33.6 | 86.6 | 7.5 | -16 | 14 |

One compound at a time (already shown). Values in the order: hypnozoite quantity inhibition [1, 4] | hypnozoite quantity inhibition [1, 5] | schizont net growth area inhibition [2, 4] | schizont net growth area inhibition [2, 5] | hepatic nuclei reduction [3, 4] [%] | hepatic nuclei reduction [3, 5] [%]
O=C1c2ccccc2C2=Nc3ccccc3SC(c3cccc(F)c3)C12 (stereo not given) in the list: -25.8 | 61.1 | 36.2 | 18.7 | 0 | -2
O=C(c1ccccc1F)N(Cc1ccc(Cl)cc1)c1ccccn1 in the list: 4.6 | 17.6 | 9.4 | 11.1 | 2 | -3
COc1ccc(Cn2cnc3c(-c4ccco4)nc(Cl)nc32)cc1 in the list: 11 | -36 | 11.1 | -242 | -2 | -10

(listing goes on)

| Compound | hypnozoite quantity inhibition [1, 4] | hypnozoite quantity inhibition [1, 5] | schizont net growth area inhibition [2, 4] | schizont net growth area inhibition [2, 5] | hepatic nuclei reduction [3, 4] [%] | hepatic nuclei reduction [3, 5] [%] |
| --- | --- | --- | --- | --- | --- | --- |
| CC(C)=CCN1CCC(C(=O)Nc2ccc(-c3nc4ccccc4[nH]3)cc2)CC1 | 0.6 | 31.9 | -24 | 15.5 | 0 | -6 |
| COc1cc(C(F)(F)F)nc2ccc(C)c(N)c12 | -40 | 24 | -82.1 | 15.5 | -11 | -4 |
| CC(C)c1ncc(-c2ccncc2)c([C@H]2CC[C@H](CNC(=O)c3cccnc3)CC2)n1 | 8 | -7 | 30 | -125 | -3 | -1 |
| O=C(CCl)NCCOc1ccc(Cl)cc1Cl | -25.8 | 56.5 | 27.2 | -37.8 | -13 | 1 |
| O=C(C1CCN(c2cc(-n3cccc3)ncn2)CC1)N1CCc2ccccc2C1 | 24 | 11 | 15.3 | -53.9 | 1 | -4 |
| CCN(CC)S(=O)(=O)c1ccc(-c2csc(Nc3ccc(C)c(C)c3)n2)cc1 | 25.9 | -36.2 | 29.3 | -100 | -5 | -6 |
| Clc1ccc2c(N[C@H]3CCCC[C@@H]3Nc3ccnc4cc(Cl)ccc34)ccnc2c1 | -42 | -20 | 93.3 | 1.6 | 13 | -2 |
| COc1ccc(CCn2c(=N)c(C(=O)NCc3cccnc3)cc3c(=O)n4cccc(C)c4nc32)cc1 | -1.3 | 26.7 | -13.2 | -34.9 | -8 | 8 |
| c1ccc(C2=Nc3ccccc3N=C(c3ccccc3)c3ccccc32)cc1 | 8.2 | 26.5 | 45.2 | 28.6 | 1 | -5 |
| FC(F)(F)c1cccc(Nc2nc3ccccc3nc2Nc2cccc(C(F)(F)F)c2)c1 | -28.8 | 35.9 | 51.5 | 37.5 | -18 | -6 |
| CCc1ccc(Nc2cc(C)nc3nc(C)nn23)cc1 | 15.8 | 37.4 | 48.6 | -0.1 | 3 | 2 |
| COc1cc(C)c2c(Oc3cccc(C(F)(F)F)c3)c(OC)cc(NC(C)CCCN)c2n1 (stereo not given) | 2 | 58.7 ± 2.4 | 93 | 62 ± 43 | -23 | -5 ± 7.1 |
| Cc1cc(C)cc(COc2ccc3c(C)c(CCC(=O)O)c(=O)oc3c2C)c1 | -23 | -7 | 51.4 | -101 | -9 | -6 |
| O=C(Cc1ccccc1)NC(c1ccc(Cl)cc1)c1c(O)ccc2ccccc12 (stereo not given) | -17.7 | 45 | -63.9 | 30.8 | -4 | 1 |
| OCc1ccc(-c2cncc(Nc3cccc(Cl)c3)c2)cc1 | 39 | 6 | 59.5 | 81.4 | -1 | -1 |
| CCCCCCC(O)(c1ccc(F)cc1)C(CN1CCOCC1)c1ccccc1 (stereo not given) | -7 | -0.8 | -12.9 | -3.8 | 6 | -5 |
| CC1CCN(Cc2ccc(NC(=O)c3cc4ccc5cccnc5c4[nH]3)cc2)CC1 | 2.5 | -52.5 | 63.4 | -103 | -6 | -6 |
| O=C(Nc1ccc(N2CCN(Cc3ccccc3)CC2)cc1)c1cccs1 | 16.4 | 1.9 | 25.6 | 51.4 | -7 | -8 |
| N=C(N)Nc1ccc(-c2ccc(-c3ccc(NC(=N)N)cc3Cl)o2)c(Cl)c1 | 10 | 11 | -37.3 | 24.1 | -13 | -25 |
| Cc1sc(NC(=O)c2ccccc2)c(C(c2cccs2)N2CCN(c3ccccc3)CC2)c1C (stereo not given) | -2 | 47.3 | -18.5 | -20.3 | -4 | -4 |
